The list shows a part of the results. These are raw signals, not scaled to a control.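 In the initial screen, polymyxin B was used at a concentration that permeabilizes Salmonella's outer membrane but not its inner membrane. Maximum growth was set by DMSO wells with or without polymyxin B. Since plates varied, data were ranked per plate, and compounds giving the lowest OD600 advanced as hits.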

Results on 31 molecules are retold here after the supplement of paper PMC12889115.

The assay relates to Salmonella enterica serovar Typhimurium SL1344. The assay is described as follows: bacterial growth OD600 after 18 h with compound and polymyxin B; higher = more bacterial growth (less inhibition). The settings on record: 50 µM, Mueller-Hinton broth.

Consider `CC(C)NCc1cccnc1N1CCN(c2ccccn2)CC1`, for which the “bacterial growth OD600” value (polymyxin B 1 µg/mL) was 0.978. Still for that read-out and setting: under `CC(=O)c1cc(CN2CCN(c3nc(-c4ccccc4)nc4c3CCC4)CC2)cs1` stands 0.825. Turning to `O=C1O[C@@H]2CN(Cc3cnn(-c4cccc(F)c4)c3)C[C@@H]2N1C1CCCC1`, for the setting “polymyxin B 0.75 µg/mL”, the “bacterial growth OD600” value was 0.93.

As for `COc1cccc([C@@H](C)NC(=O)CCC2(Cc3cc(OC)ccc3F)CCC(=O)N2)c1` (stereo partly specified), the “bacterial growth OD600” value (polymyxin B 0.75 µg/mL) came to 0.838.

As to `CCOc1ccc2nc(N3CCCN(Cc4cccc(O)c4)CC3)nc(C)c2c1`, the “bacterial growth OD600” value (polymyxin B 0.75 µg/mL) came to 0.797. With `Cc1cc(C)c(C(=O)N2CCC(C3CCN(Cc4cccnc4)CC3)C2)[nH]1` (stereo unspecified), the “bacterial growth OD600” value (polymyxin B 0.75 µg/mL) stood at 0.848.

For the molecule `CC(C)c1cc(C(=O)N2CCCC(C(=O)c3ccc4ccccc4c3)C2)on1` (stereo unspecified), the “bacterial growth OD600” value (polymyxin B 1 µg/mL) worked out at 0.979.

Regarding `COc1ccc(F)c(CN2CCCC(O)(CNC3CCCCC3)C2=O)c1` (stereo unspecified), for the setting “polymyxin B 0.75 µg/mL”, the “bacterial growth OD600” value is 0.962. On the same count and under the same terms, under `Cc1oc(-c2ccccc2NS(C)(=O)=O)nc1CN(C)Cc1c(F)cccc1F` stands 0.078; under `C=CCC(O)(CC=C)C(C)NC(=O)CCC1(CC)CCC(=O)N1` (stereo unspecified), 0.903. Turning to `COC(=O)c1ccc(CN2CCC(CO)(CCOc3ccccc3)CC2)cc1`, the “bacterial growth OD600” value (polymyxin B 1 µg/mL) came to 1.13. With `COCCn1cc(C(=O)NCC2(c3ccccc3)CCCC2)c(=O)c(C(=O)N2CCCCCC2)c1`, for the setting “polymyxin B 0.75 µg/mL”, the “bacterial growth OD600” value amounted to 0.773. For `COc1ccc(CCN2C(=O)O[C@@H]3CN(S(=O)(=O)N4CCCC4)C[C@@H]32)cc1`, the “bacterial growth OD600” value (polymyxin B 1 µg/mL) worked out at 0.928. On to `COC(=O)C1CCCCN1Cc1nc(N2CCCN(C(C)=O)CC2)c2cccc(C)c2n1` (stereo unspecified), for which the “bacterial growth OD600” value (polymyxin B 0.75 µg/mL) was found to be 0.892. Turning to `CCOC(=O)CNC(=O)N1CCC(CCC(=O)Nc2cccc(OC)c2)CC1`, the “bacterial growth OD600” value (polymyxin B 1 µg/mL) came out at 0.99.

For `CCc1nccn1CCC(=O)NCc1nc(-c2ccc(NC(=O)c3ccc(COC)o3)cc2)oc1C`, the “bacterial growth OD600” value (polymyxin B 0.75 µg/mL) turned out to be 0.883. On to `COC(C(=O)Nc1ccnn1C1CCN(C2CCCC2)CC1)c1ccccc1` (stereo unspecified), for which the “bacterial growth OD600” value (polymyxin B 1 µg/mL) was determined as 1.01. `O=C(Nc1ccc(-c2nc3ccccc3o2)cc1)C1CCN(CCO)CC1`: where the note is “polymyxin B 1 µg/mL”, the “bacterial growth OD600” value came out at 1.06. In the case of `Cc1ccccc1CCC1CCCN(C(=O)CCN2CCCO2)C1` (stereo unspecified), the “bacterial growth OD600” value (polymyxin B 0.75 µg/mL) came to 0.845. Regarding `CCOC(=O)C1(Cc2ccc(F)cc2F)CCCN(Cc2cnc(SC)nc2)C1` (stereo unspecified), under “polymyxin B 1 µg/mL”, the “bacterial growth OD600” value was determined as 0.777.

For `Cc1cccc(CN2CCCC3(CCN(c4cc(C)nc(N)n4)C3)C2=O)c1` (stereo unspecified), the “bacterial growth OD600” value (polymyxin B 1 µg/mL) was found to be 0.908. The same measure, in the same setting: the value for `Cc1cnc(C(=O)N(CC2CCN(Cc3ccccc3C)CC2)CC2CCCO2)cn1` (stereo unspecified) was 0.541; that for `O=C(NCc1cccc2[nH]ccc12)c1cc(COc2ccccc2)[nH]n1` was 1. As to `COC(=O)CC(NC1CCN(c2ccc(NC(=O)c3cnccn3)cc2)CC1)C(=O)OC` (stereo unspecified), the “bacterial growth OD600” value (polymyxin B 0.75 µg/mL) was determined as 0.87.

`O=C(c1ccccn1)N1CCC2(CCCN(Cc3ccc(F)c(F)c3)C2=O)C1` (stereo unspecified): the “bacterial growth OD600” value (polymyxin B 1 µg/mL) stood at 0.959. `COc1cccc(CC2=NOC(C(=O)NC3CCc4ccccc43)C2)c1` (stereo unspecified): the “bacterial growth OD600” value (polymyxin B 0.75 µg/mL) turned out to be 0.719. As for `COc1cccc(CN2CC(C(=O)N3CCC(Oc4cccnc4)CC3)CCC2=O)c1` (stereo unspecified), for the setting “polymyxin B 1 µg/mL”, the “bacterial growth OD600” value was determined as 0.814. Turning to `CCCn1cc(CN2C[C@H]3OC(=O)N(CCc4ccc(F)cc4)[C@H]3C2)c(C)n1`, the “bacterial growth OD600” value (polymyxin B 0.75 µg/mL) was 0.814. As for `c1cnc(N2CCC(C3CCN(C4CCOCC4)C3)CC2)nc1` (stereo unspecified), the “bacterial growth OD600” value (polymyxin B 0.75 µg/mL) amounted to 0.778.

Turning to `COc1ccccc1CNC(=O)CCC1(Cc2ccc(OC)c3ccccc23)CCC(=O)N1` (stereo unspecified), the “bacterial growth OD600” value (polymyxin B 0.75 µg/mL) came out at 0.747. In the case of `COc1ccc(CN2CCN(C3CCCC3)C(CCO)C2)cc1C` (stereo unspecified), the “bacterial growth OD600” value (polymyxin B 1 µg/mL) stood at 0.794.
